In US20190033295A1 one finds binding data, which are given here for two substances.

The chains behind the UniProt entries cited, without tags or fusion partners. Residues count along the entry.
UniProt P11021, residues 19-654: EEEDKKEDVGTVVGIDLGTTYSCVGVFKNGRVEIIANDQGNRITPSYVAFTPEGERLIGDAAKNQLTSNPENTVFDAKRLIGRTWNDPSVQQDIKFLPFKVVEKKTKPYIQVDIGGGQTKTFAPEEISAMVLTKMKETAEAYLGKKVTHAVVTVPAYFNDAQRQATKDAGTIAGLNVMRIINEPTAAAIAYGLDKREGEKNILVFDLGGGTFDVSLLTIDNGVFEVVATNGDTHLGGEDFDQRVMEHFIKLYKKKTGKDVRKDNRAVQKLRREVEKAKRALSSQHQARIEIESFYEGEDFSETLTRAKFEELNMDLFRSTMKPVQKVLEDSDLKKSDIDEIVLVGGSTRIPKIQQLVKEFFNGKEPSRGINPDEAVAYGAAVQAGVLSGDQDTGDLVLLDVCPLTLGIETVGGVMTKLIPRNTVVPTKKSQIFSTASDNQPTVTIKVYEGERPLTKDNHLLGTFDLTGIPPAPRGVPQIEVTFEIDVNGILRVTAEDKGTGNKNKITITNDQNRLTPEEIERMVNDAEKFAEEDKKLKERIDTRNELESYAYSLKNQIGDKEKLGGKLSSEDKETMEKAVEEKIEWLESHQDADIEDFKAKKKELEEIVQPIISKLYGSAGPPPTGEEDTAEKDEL
UniProt P38646, residues 47-679: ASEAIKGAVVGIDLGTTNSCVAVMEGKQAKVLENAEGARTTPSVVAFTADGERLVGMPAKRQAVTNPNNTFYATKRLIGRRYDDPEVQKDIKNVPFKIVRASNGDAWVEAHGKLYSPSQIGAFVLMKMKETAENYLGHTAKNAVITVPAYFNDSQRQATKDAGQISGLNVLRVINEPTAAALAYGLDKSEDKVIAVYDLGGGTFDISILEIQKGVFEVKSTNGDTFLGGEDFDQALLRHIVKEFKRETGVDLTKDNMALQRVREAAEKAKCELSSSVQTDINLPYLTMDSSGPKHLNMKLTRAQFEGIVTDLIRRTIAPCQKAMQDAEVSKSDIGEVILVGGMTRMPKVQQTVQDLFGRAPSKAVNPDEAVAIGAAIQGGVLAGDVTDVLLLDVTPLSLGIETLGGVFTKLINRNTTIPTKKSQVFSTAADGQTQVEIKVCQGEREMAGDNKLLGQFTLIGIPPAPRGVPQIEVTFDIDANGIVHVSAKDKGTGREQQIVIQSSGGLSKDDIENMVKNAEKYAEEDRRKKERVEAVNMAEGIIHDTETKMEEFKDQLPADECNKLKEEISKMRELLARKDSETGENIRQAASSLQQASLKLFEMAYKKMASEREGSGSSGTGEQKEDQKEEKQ

This experiment concerns the target T1, GST-AIMP2-DX2 fragment DM1 (human) (UniProt Q13155).
T1 sequence: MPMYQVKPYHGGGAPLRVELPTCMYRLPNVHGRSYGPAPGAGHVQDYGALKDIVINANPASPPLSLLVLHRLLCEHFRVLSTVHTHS
As to the kind of experiment: GST pull-down from 293T lysate, mass spectrometry.

These are yes or no findings as the source states them, for the method shown. In cells and extracts the contact can be indirect. A yes stands for co-enrichment or nearness to the bait. Other partners may have been found. Where a sequence is shown, tags or fusion partners need not be part of it.

Regarding HSPA5 (from UniProt P11021 19-654), the binding entry is “binds”.
Take HSPA9 (from UniProt P38646 47-679): the binding entry is listed as “binds”.
